Among the data in the supplement of paper PMC7580552 are biofilm formation values, retold here.

Counter-ions that a name gives are not always drawn. This is one part of the list. Part of the spread comes from offsets between plates or batches.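 Biofilm, quantified by the absorbance of well-retained crystal violet, is assayed using the K-12 laboratory model grown unshaken in 96-well plates. Candidate specific biofilm inhibitors were drugs that sharply lowered staining yet reduced free-floating growth by less than 70%.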

For the assay, the system named is Escherichia coli W3110. Kind of assay: biofilm formation (crystal violet staining) relative to untreated control; higher = more biofilm. The conditions noted are these: 10 µM; 20-24 h; 30 °C; TB.
For the molecule `Cc1cc(N)c2ccccc2[n+]1CCCCCCCCCC[n+]1c(C)cc(N)c2ccccc21` [Dequalinium dichloride], the biofilm formation worked out at 28%.

As to `Nc1ccn([C@@H]2CS[C@H](CO)O2)c(=O)n1` [Lamivudine], the biofilm formation stood at 69%.

`NC1CCN(c2nc3c(cc2F)c(=O)c(C(=O)O)cn3-c2ccc(F)cc2F)C1` (centres undefined) [Tosufloxacin hydrochloride] showed a biofilm formation of 3%.

`COC(=O)Nc1nc2cc([S+]([O-])c3ccccc3)ccc2[nH]1` (centres undefined) [Oxfendazol] gave a biofilm formation of 64%.

Consider `c1ccc(CNc2ncnc3nc[nH]c23)cc1` [Aminopurine, 6-benzyl], for which the biofilm formation stood at 60%.

As for `CN1Cc2c(N)cccc2C(c2ccccc2)C1` (centres undefined) [Nomifensine maleate], the biofilm formation turned out to be 45%.

`CC(C)(O)c1ccccc1CC[C@@H](SCC1(CC(=O)O)CC1)c1cccc(/C=C/c2ccc3ccc(Cl)cc3n2)c1` [Montelukast] had a biofilm formation of 67%.

In turn, `O=C(c1ccccc1)c1ccc2n1CCC2C(=O)O` (centres undefined) [Ketorolac tromethamine] showed a biofilm formation of 57%.

In turn, `CCOC(=O)[C@@](C)(N)Cc1ccc(O)c(O)c1` [Methyldopate hydrochloride] yielded a biofilm formation of 82%.

The molecule `COc1c(N2CCNC(C)C2)c(F)cc2c(=O)c(C(=O)O)cn(C3CC3)c12` (centres undefined) [Gatifloxacin] showed a biofilm formation of 23%.

With `Cc1cc(C2CCCCC2)n(O)c(=O)c1` [Ciclopirox ethanolamine], the biofilm formation came out at 92%.

`COc1cc(C(=O)NS(=O)(=O)c2ccccc2C)ccc1Cc1cn(C)c2ccc(NC(=O)OC3CCCC3)cc12` [Zafirlukast] showed a biofilm formation of 65%.

On to `NS(=O)(=O)c1cc(C(=O)O)c(NCc2ccco2)cc1Cl` [Furosemide], for which the biofilm formation worked out at 72%.

As to `NC(=O)c1ncn([C@@H]2O[C@H](CO)[C@@H](O)[C@H]2O)n1` [Ribavirin], the biofilm formation was determined as 56%.

Molecule `CCOC(=O)[C@H](CCc1ccccc1)N[C@@H](C)C(=O)N1[C@H](C(=O)O)C[C@@H]2CCC[C@@H]21` [Ramipril] had a biofilm formation of 82%.

As to `CCOc1ccc2c(c1)C(C)=CC(C)(C)N2` [Ethoxyquin], the biofilm formation amounted to 63%.

`CC(C)COCC(CN(Cc1ccccc1)c1ccccc1)N1CCCC1` (centres undefined) [Bepridil hydrochloride]: the biofilm formation was found to be 56%.

In turn, `NS(=O)(=O)c1cc2c(cc1Cl)N=CNS2(=O)=O` [Chlorothiazide] registered a biofilm formation of 63%.

In turn, `CN[C@H](CC(C)C)C(=O)N[C@H]1C(=O)N[C@@H](CC(N)=O)C(=O)N[C@H]2C(=O)N[C@H]3C(=O)N[C@H](C(=O)N[C@H](C(=O)O)c4cc(O)cc(O)c4-c4cc3ccc4O)[C@H](O)c3ccc(c(Cl)c3)Oc3cc2cc(c3O[C@@H]2O[C@H](CO)[C@@H](O)[C@H](O)[C@H]2O[C@H]2C[C@](C)(N)[C@H](O)[C@H](C)O2)Oc2ccc(cc2Cl)[C@H]1O` [Vancomycin hydrochloride] gave a biofilm formation of 30%.
